Results: paper PMC5554444 (Cancer prevention research (Philadelphia, Pa.), 2011)

Assay: Caco-2 cell monolayer permeability
Type: in vitro ADME
Conditions: human, Caco-2, pH 7.4

Papp A→B at 10 µM: 276 nm/s
SMILES: CC(C)NCC(O)COc1cccc2ccccc12 (stereo not shown) [Propranolol, reference compound]
